Results deposited as PubChem BioAssay AID1508597 (Cure First, 2020).

- Purpose: 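Survival screen with siRNA in ovarian cancer cells derived from patients, with or without rucaparib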 (primary screen)
- System: human ovarian carcinoma lines grown from tumours: OCI-P5x (papillary serous) and OCI-C5x (clear cell)
- Reagents: siRNA pool against human genes, 1.25 pmol siRNA per well
- Duration: 72 h or 96 h, depending on the cell culture
- Treatment: rucaparib 20 µM (about IC30) or vehicle, present until read-out
- Rucaparib or vehicle: Rucaparib
- Cell line: OCI-P5x (serous)
- Measurement: 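ATP luminescence measured at 72 or 96 h according to the culture, then normalised and expressed as percent viability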
- Reading the numbers: viability, normalised: higher = more viable cells remaining
- Call rule: 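Active when normalised viability falls below 80 percent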
- Calls: active = viability under 80%; inactive = viability 80% or more
This is an unselected part of the about 2,100 reagents, under one of the conditions tested. 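Calls flag viability under 80% in either arm, not effects specific to rucaparib; the reference for percent is not stated.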 Some reagents were tested in more than one well and are listed for each. Not stated in the record: the 100% reference.

| target gene | technical replicate | viability, normalised (%) | outcome |
| --- | --- | --- | --- |
| EME1 | 1 | 106 | inactive |
| EME1 | 2 | 110 | inactive |
| EME1 | 3 | 94.7 | inactive |
| DDX3Y | 1 | 43.7 | active |
| DDX3Y | 2 | 45.2 | active |
| DDX3Y | 3 | 49.1 | active |
| IKZF1 | 1 | 70.3 | active |
| IKZF1 | 2 | 61 | active |
| IKZF1 | 3 | 68.7 | active |

The list goes on (2 carried over from the part before).
| target gene | technical replicate | viability, normalised (%) | outcome |
| --- | --- | --- | --- |
| IKZF1 | 2 | 61 | active |
| IKZF1 | 3 | 68.7 | active |
| SETD1A | 1 | 50.3 | active |
| SETD1A | 2 | 53.3 | active |
| SETD1A | 3 | 46.1 | active |
| PIP4K2A | 1 | 82.3 | inactive |
| PIP4K2A | 2 | 92.5 | inactive |
| PIP4K2A | 3 | 81.6 | inactive |
| CARM1 | 1 | 39.4 | active |
| CARM1 | 2 | 45.2 | active |
| CARM1 | 3 | 65.4 | active |
| RECQL4 | 1 | 76.1 | active |
| RECQL4 | 1 | 168 | inactive |
| RECQL4 | 1 | 48.1 | active |
| RECQL4 | 2 | 117 | inactive |
| RECQL4 | 2 | 55.4 | active |
| RECQL4 | 2 | 68.8 | active |
| RECQL4 | 3 | 56.3 | active |
| RECQL4 | 3 | 85.5 | inactive |
| RECQL4 | 3 | 130 | inactive |
